Assay results from patent US20060246074A1.
Results are given in words; binding and its absence hold for the method and conditions named. Some binding calls cover weakened binding; strength is not graded here.

T1: cathepsin G (Calbiochem) (UniProt P08311)
T1 sequence (looked up): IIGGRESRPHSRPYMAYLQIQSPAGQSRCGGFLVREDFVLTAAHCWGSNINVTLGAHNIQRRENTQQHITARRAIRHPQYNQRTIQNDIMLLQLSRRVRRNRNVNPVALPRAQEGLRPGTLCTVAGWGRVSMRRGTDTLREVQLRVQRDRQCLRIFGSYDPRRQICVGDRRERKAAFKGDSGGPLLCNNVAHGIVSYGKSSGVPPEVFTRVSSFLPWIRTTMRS


Key:
cathepsin G (Calbiochem) [1] = target: T1, cathepsin G (Calbiochem); assay: plate assay: dilution series of ACT on cathepsin G-coated plate, detected with anti-ACT antibody, absorbance 490 nm; no absorbance values printed
cathepsin G (Calbiochem) [2] = target: T1, cathepsin G (Calbiochem); assay: plate assay: cathepsin G coated on microtiter plate, bound ACT detected with rabbit anti-human ACT antibody and AP-coupled secondary antibody, absorbance 490 nm

binding (cathepsin G (Calbiochem) [1]) | binding (cathepsin G (Calbiochem) [2]) | Binder
binds |  | commercially available ACT (Calbiochem) (protein) NSPLDEENLTQENQDRGTHVDLGLASANVDFAFSLYKQLVLKAPDKNVIFSPLSISTALAFLSLGAHNTTLTEILKGLKFNLTETSEAEIHQSFQHLLRTLNQSSDELQLSMGNAMFVKEQLSLLDRFTEDAKRLYGSEAFATDFQDSAAAKKLINDYVKNGTRGKITDLIKDLDSQTMMVLVNYIFFKAKWEMPFDPQDTHQSRFYLSKKKWVMVPMMSLHHLTIPYFRDEELSCTVVELKYTGNASALFILPDQDKMEEVEAMLLPETLKRWRDSLEFREIGELYLPKFSISRDYNLNDILLQLGIEEAFTSKADLSGITGARNLAVSQVVHKAVLDVFEEGTEASAATAVKITLLSALVETRTIVRFNRPFLMIIVPTDTQNIFFMSKVTNPKQA
 | binds | active ACT polypeptides (alpha 1-antichymotrypsin) from human wound exudates (protein, UniProt P01011 24-423, looked up) HPNSPLDEENLTQENQDRGTHVDLGLASANVDFAFSLYKQLVLKAPDKNVIFSPLSISTALAFLSLGAHNTTLTEILKGLKFNLTETSEAEIHQSFQHLLRTLNQSSDELQLSMGNAMFVKEQLSLLDRFTEDAKRLYGSEAFATDFQDSAAAKKLINDYVKNGTRGKITDLIKDLDSQTMMVLVNYIFFKAKWEMPFDPQDTHQSRFYLSKKKWVMVPMMSLHHLTIPYFRDEELSCTVVELKYTGNASALFILPDQDKMEEVEAMLLPETLKRWRDSLEFREIGELYLPKFSISRDYNLNDILLQLGIEEAFTSKADLSGITGARNLAVSQVVHKAVLDVFEEGTEASAATAVKITLLSALVETRTIVRFNRPFLMIIVPTDTQNIFFMSKVTNPKQA
